These results are taken from PubChem BioAssay.

Amino acid sequences for entries named in this document (tags omitted).
UniProt P42858, whole entry, looked up: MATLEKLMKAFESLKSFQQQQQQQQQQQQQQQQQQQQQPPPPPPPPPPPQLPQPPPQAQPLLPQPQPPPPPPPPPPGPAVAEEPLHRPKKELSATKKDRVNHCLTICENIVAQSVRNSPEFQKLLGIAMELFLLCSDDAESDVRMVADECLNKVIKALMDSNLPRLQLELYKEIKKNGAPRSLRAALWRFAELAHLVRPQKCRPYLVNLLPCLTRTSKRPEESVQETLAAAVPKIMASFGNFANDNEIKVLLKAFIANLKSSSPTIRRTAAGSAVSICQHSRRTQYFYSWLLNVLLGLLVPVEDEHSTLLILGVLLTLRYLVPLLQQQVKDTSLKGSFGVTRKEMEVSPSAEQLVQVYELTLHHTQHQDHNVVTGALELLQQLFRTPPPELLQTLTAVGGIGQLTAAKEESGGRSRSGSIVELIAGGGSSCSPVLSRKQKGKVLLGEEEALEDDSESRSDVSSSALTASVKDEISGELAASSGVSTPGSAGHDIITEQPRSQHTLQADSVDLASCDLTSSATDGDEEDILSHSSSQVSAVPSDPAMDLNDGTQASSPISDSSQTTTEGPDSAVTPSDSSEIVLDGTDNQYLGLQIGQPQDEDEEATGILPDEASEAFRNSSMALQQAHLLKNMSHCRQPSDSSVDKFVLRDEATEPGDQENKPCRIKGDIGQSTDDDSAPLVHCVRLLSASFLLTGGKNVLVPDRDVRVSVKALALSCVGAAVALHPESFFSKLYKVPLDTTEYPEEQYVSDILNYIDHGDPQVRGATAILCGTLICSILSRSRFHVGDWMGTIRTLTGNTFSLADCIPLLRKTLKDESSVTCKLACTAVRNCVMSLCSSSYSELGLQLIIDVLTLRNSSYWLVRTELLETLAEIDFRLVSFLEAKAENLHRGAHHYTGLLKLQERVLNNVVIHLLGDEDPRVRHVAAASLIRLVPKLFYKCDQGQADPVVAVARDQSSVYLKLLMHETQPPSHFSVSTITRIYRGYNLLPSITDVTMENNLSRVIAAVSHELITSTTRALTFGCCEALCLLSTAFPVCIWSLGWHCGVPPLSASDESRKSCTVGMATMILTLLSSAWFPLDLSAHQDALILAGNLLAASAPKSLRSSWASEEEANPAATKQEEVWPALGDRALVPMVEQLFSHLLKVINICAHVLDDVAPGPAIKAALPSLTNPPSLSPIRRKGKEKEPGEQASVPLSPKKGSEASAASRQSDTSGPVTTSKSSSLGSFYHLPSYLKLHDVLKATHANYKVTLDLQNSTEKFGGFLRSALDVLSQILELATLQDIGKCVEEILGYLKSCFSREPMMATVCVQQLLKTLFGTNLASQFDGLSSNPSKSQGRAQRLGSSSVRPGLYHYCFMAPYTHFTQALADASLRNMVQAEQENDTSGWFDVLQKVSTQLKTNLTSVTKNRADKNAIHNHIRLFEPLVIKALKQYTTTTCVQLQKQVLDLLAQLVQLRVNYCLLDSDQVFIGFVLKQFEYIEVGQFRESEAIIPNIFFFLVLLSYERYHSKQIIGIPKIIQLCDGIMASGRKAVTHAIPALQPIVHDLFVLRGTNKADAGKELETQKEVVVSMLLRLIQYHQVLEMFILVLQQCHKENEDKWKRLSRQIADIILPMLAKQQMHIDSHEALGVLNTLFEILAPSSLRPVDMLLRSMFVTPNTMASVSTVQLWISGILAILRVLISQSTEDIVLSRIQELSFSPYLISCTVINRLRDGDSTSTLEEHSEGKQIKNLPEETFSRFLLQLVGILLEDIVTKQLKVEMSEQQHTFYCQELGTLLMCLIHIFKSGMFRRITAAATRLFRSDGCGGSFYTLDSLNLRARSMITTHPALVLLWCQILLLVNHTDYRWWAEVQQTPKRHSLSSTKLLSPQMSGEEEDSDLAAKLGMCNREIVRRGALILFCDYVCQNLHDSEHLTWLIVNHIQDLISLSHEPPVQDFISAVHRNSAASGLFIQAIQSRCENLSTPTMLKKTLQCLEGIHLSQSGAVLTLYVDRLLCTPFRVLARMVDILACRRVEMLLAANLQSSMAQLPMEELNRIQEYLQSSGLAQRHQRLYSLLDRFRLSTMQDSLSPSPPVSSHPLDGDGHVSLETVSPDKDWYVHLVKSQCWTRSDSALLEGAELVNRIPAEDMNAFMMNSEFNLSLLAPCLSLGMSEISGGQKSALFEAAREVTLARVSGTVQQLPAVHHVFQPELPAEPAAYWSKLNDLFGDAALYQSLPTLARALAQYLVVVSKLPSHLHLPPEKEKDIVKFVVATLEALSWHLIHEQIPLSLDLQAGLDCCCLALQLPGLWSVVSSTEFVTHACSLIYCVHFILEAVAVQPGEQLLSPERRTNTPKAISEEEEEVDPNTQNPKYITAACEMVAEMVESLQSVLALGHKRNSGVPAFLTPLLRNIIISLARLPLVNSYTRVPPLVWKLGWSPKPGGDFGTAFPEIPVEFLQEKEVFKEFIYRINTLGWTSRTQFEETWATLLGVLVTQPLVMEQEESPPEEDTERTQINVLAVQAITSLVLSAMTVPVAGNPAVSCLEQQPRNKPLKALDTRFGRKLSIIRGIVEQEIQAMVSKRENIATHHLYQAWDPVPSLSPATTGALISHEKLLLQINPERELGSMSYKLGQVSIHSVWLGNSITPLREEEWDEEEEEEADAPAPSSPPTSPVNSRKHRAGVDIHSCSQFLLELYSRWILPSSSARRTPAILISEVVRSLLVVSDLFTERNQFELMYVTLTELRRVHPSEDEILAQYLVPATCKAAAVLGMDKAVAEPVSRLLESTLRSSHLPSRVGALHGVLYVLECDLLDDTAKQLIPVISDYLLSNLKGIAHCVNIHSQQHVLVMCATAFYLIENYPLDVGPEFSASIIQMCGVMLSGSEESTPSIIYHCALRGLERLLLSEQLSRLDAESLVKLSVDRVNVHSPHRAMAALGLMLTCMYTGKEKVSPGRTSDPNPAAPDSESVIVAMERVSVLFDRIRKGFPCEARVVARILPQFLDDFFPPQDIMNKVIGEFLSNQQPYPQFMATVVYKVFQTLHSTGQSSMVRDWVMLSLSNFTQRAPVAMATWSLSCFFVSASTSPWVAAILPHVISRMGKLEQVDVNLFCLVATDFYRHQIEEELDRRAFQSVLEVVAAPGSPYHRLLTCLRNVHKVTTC

The target in assay [1] is Huntingtin (Homo sapiens) (UniProt P42858). The assay is described as follows: inhibitors of mutant Htt aggregation in vitro, dose response, QA1 (AID 1584). The conditions noted are these: in vitro mutant huntingtin aggregation assay; confirmation test; at 10 µM; stronger effect = lower value.
The nature of another assay: PubChem AID 1586. The following applies: yeast two-hybrid polyglutamine protein interaction, reporter readout; measured here: averaged growth delta OD.
A short description of assay [2]: enhancers of SMN2 over SMN1 splicing, cell-based, SMN2/SMN1 luciferase reporters (AID 1598). The following applies: SMN2 vs SMN1 luciferase splicing reporter cells, at 10 µM; SMN1 luciferase ratio: measured here: SMN1 luciferase reporter average; SMN2 luciferase ratio: measured here: SMN2 luciferase reporter average, stronger effect = higher value. A general note: Reporter assays use an easily measured gene product as a stand-in for the process of interest.

A short description of assay [3]: protection against mutant huntingtin cytotoxicity, PC12 cells, LDH release (AID 1610). The following applies: PC12 mutant huntingtin toxicity, final LDH at 4 uM, stronger effect = lower value.

“And” between values parts separate entries of the source, which are not always exact repeats. Equal values may be shown once. Some of the results follow. Shown are side measurements of this screen, not its main read-out; they come without a call. For some of these results: Compounds called inactive in the main read-out are mostly missing here.

In the case of `CNC1(c2ccccc2Cl)CCCCC1=O` (stereo not drawn), the aggregation ratio in assay [1] was determined as 1.05. The same molecule gave a signal change (36 h minus 0 h) in “PubChem AID 1586” of 0.192. In addition, in assay [2], the SMN1 luciferase ratio stood at 0.91 and the SMN2 luciferase ratio worked out at 1.06. In assay [3], the normalised LDH release was 0.958.
In the assay “PubChem AID 1586”, `COc1ccc(C(=O)N2CCCC2=O)cc1` showed a signal change (36 h minus 0 h) of 0.178. Also, in assay [2], the SMN1 luciferase ratio is 0.89 and the SMN2 luciferase ratio stood at 0.88. Moreover, the normalised LDH release in assay [3] turned out to be 0.908.
In the same order, the values of `C[CH2][Hg][S]c1ccccc1C(=O)O` are 0.0261, 0.1, 0.16 and 0.976.
In the same order, the values of `ClC1C(Cl)C(Cl)C(Cl)C(Cl)C1Cl` (stereo not drawn) are 0.456, 0.96, 0.93 and 0.4.
For `O=C1Nc2ccc(Cl)cc2C(c2ccccc2Cl)=NC1O` (stereo not drawn), in that order: 0.186, 0.98, 0.95 and 1.03.
With `CCC(=O)C(CC(C)N(C)C)(c1ccccc1)c1ccccc1` (stereo not drawn), the signal change (36 h minus 0 h) in the assay “PubChem AID 1586” was found to be 0.096. Also, in assay [2], the SMN1 luciferase ratio was 0.84 and the SMN2 luciferase ratio turned out to be 0.89. The molecule further gave a normalised LDH release in assay [3] of 0.98.
In the same order, the values of `NCCc1ccc(O)cc1` are 0.0363, 0.89, 0.93 and 1.43.
For the molecule `CC[C@@]1(O)C[C@H](O[C@H]2C[C@H](N(C)C)[C@H](O)[C@H](C)O2)c2c(cc3c(c2O)C(=O)c2c(O)cccc2C3=O)[C@H]1C(=O)OC`, the signal change (36 h minus 0 h) in the assay “PubChem AID 1586” came out at 0.104. Also, in assay [2], the SMN1 luciferase ratio turned out to be 0.05 and the SMN2 luciferase ratio amounted to 0.08. This molecule yielded a normalised LDH release in assay [3] of 0.823.
In the same order, the values of `CC(N)Cc1ccc2c(c1)OCO2` (stereo not drawn) are 0.0979, 0.97, 0.87 and 0.982.
In the same order, the values of `C[N+](C)(C)CC#CCN1CCCC1=O` are 0.202, 0.91, 0.99 and 0.0173.
For `Oc1ccc(Cl)cc1`, in that order: 0.0326, 1, 0.94 and 0.559.
Take `NC(=NCCC[C@H](N)C(=O)O)N[N+](=O)[O-]`: in “PubChem AID 1586”, the signal change (36 h minus 0 h) is 0.368 and 0.31. For the same molecule, in assay [2], the SMN1 luciferase ratio is 0.92 and 0.89; the SMN2 luciferase ratio is 0.87 and 0.97. In assay [3], the normalised LDH release was 0.861 and 1.08.
In the case of `C[C@]12CCC3C(CC[C@]4(O)C[C@@H](O)CC[C@]34C=O)[C@@]1(O)CCC2C1=CC(=O)OC1` (stereo partly drawn), the signal change (36 h minus 0 h) in the assay “PubChem AID 1586” stood at 0.15. For the same molecule, in assay [2], the SMN1 luciferase ratio was found to be 0.05 and the SMN2 luciferase ratio is 0.09. The molecule also gave a normalised LDH release in assay [3] of 0.871.
For `CC[C@@H]1/C=C/C=C/C[C@H](C)[C@@H](O)[C@](C)(O)C(=O)[C@H](C)[C@@H](O)[C@H](C)C(=O)[C@H](C)[C@@H](O)[C@H](C)/C=C/C(=O)O[C@H]2[C@@H](C)[C@@H](CC1)O[C@@]1(CC[C@@H](C)[C@@H](C[C@H](C)O)O1)[C@@H]2C`, in that order: -0.217, 0.28, 0.37 and 0.382.
In the same order, the values of `COc1cc([C@@H]2c3cc4c(cc3[C@H](O)[C@H]3COC(=O)[C@H]23)OCO4)cc(OC)c1OC` are 0.212, 1.4, 1.35 and 0.945.
In the same order, the values of `O=[N+]([O-])c1cc(O)c(O)c([N+](=O)[O-])c1` are 0.151, 0.9, 1.02 and 0.773.
The molecule `CC1CC[C@@]2(NC1)OC1CC3C4CC=C5CC(O)CCC5(C)C4CCC3(C)C1[C@@H]2C` (stereo partly drawn) displayed a signal change (36 h minus 0 h) in the assay “PubChem AID 1586” of 0.0693. In addition, in assay [2], the SMN1 luciferase ratio turned out to be 0.94 and the SMN2 luciferase ratio turned out to be 1.01. Also, the normalised LDH release in assay [3] is 0.805.
For the molecule `C=CCC1(CC(C)C)C(=O)NC(=O)NC1=O`, the signal change (36 h minus 0 h) in “PubChem AID 1586” is 0.185. Further, in assay [2], the SMN1 luciferase ratio turned out to be 0.91 and the SMN2 luciferase ratio amounted to 0.91. Also, the normalised LDH release in assay [3] is 0.709.
Molecule `CN1CCc2cc3c(cc2C1O)OCO3` (stereo not drawn) showed a signal change (36 h minus 0 h) in “PubChem AID 1586” of 0.116. Moreover, in assay [2], the SMN1 luciferase ratio worked out at 0.92 and the SMN2 luciferase ratio turned out to be 1.02. In assay [3], this molecule had a normalised LDH release of 1.11.
For `COc1ccc2c3c1O[C@H]1[C@@H](O)C=CC4[C@@H](C2)N(C)CC[C@@]341` (stereo partly drawn), in that order: 0.199, 0.82, 0.93 and 0.904.
In “PubChem AID 1586”, `CCCC(C)C1(CC)C(=O)N=C(S)NC1=O` (stereo not drawn) showed a signal change (36 h minus 0 h) of 0.381. Further, in assay [2], the SMN1 luciferase ratio is 0.82 and the SMN2 luciferase ratio worked out at 0.89. In assay [3], the normalised LDH release was found to be 0.915.
`CC(=O)Nc1cc([As](=O)(O)O)ccc1O` yielded a signal change (36 h minus 0 h) in “PubChem AID 1586” of 0.123. In assay [2], the SMN1 luciferase ratio stood at 1.04 and the SMN2 luciferase ratio is 0.88. The molecule also showed a normalised LDH release in assay [3] of 0.96.
In the same order, the values of `CN1C(=O)CCS(=O)(=O)C1c1ccc(Cl)cc1` (stereo not drawn) are 0.33, 0.94, 0.98 and 1.04.
In the same order, the values of `CNC(C)Cc1ccc2c(c1)OCO2` (stereo not drawn) are 0.14, 0.95, 0.9 and 0.96.
For `CC[C@@]1(C2O[C@@H](C3O[C@@](O)(CC)[C@H](C)C[C@@H]3C)C[C@@H]2C)CC[C@H]([C@]2(C)CCC3(C[C@H](O)[C@@H](C)[C@@H]([C@H](C)[C@@H](OC)[C@H](C)C(=O)O)O3)O2)O1` (stereo partly drawn), in that order: 0.203, 0.7, 0.71 and 0.811.
Turning to `Clc1ccc(COC(Cn2ccnc2)c2ccc(Cl)cc2Cl)cc1` (stereo not drawn), in the assay “PubChem AID 1586”, the signal change (36 h minus 0 h) was -0.0352. In assay [2], the SMN1 luciferase ratio was determined as 0.84 and the SMN2 luciferase ratio came to 0.87. The normalised LDH release in assay [3] came out at 1.12.
`Clc1ccc(CSC(Cn2ccnc2)c2ccc(Cl)cc2Cl)cc1` (stereo not drawn) showed a signal change (36 h minus 0 h) in the assay “PubChem AID 1586” of 0.0567. Also, in assay [2], the SMN1 luciferase ratio stood at 0.9 and the SMN2 luciferase ratio is 1. In assay [3], this molecule came in with a normalised LDH release of 0.904.
In the same order, the values of `CC[C@@H]1[C@@H](O)N2C3C[C@H]1C1C(O)[C@]4(C[C@@H]12)c1ccccc1N(C)[C@@H]34` (stereo partly drawn) are 0.23, 0.87, 0.82 and 1.04.
As to `O=c1[nH]oc2c1CCNC2`, the signal change (36 h minus 0 h) in the assay “PubChem AID 1586” is 0.185. In addition, in assay [2], the SMN1 luciferase ratio came to 0.88 and the SMN2 luciferase ratio was determined as 0.91. The normalised LDH release in assay [3] was determined as 0.871.
In the same order, the values of `CCN1C[C@@]2(COC)C3[C@@H](OC)[C@H]4[C@@H]1[C@]3(C(OC)C[C@H]2O)C1C[C@@]2(O)[C@H](OC(=O)c3ccccc3)C1[C@]4(OC(C)=O)[C@@H](O)[C@@H]2OC` (stereo partly drawn) are 0.131, 0.92, 0.88 and 0.961.
For `O=C(O)CCCc1ccc(N(CCCl)CCCl)cc1`, in that order: 0.244, 0.95, 0.86 and 0.846.
As for `C=CCc1ccc2c(c1)OCO2`, the signal change (36 h minus 0 h) in “PubChem AID 1586” worked out at 0.478. In addition, in assay [2], the SMN1 luciferase ratio stood at 0.85 and the SMN2 luciferase ratio was found to be 0.92. Also, the normalised LDH release in assay [3] is 1.11.
For `C=C(C)[C@@H]1[C@H]2OC(=O)[C@@H]1[C@]1(O)C[C@H]3O[C@]34C(=O)O[C@H]2[C@]14C`, in that order: 0.177, 0.85, 0.81 and 0.995.
